Assay results reported in US20050238581A1, “Dynamic hepatic recycling glucose tolerance test” (priority 2002, published 2005).

Experiment: intraperitoneal hepatic recycling glucose tolerance test (HRGTT) with [1, 2-^13C2]-glucose load
Type: in vivo, C57BL6 mice
Conditions: at 60 minutes, ip 1 mg/gm
Description: Stable isotopes of the M2 isotopomer glucose was administered at 1 mg glucose/gm body weight by intraperitoneal injection. Animals were euthanized by an overdose of isoflurane anesthesia, and tissue from liver and skeletal muscle were rapidly dissected free, snap-frozen in liquid nitrogen, and stored at −80° C. until processed for isolation of RNA or glycogen. Cytosolic protein was extracted from the liver tissue after homogenization with 10 strikes in lysis buffer containing 0.25 M sucrose, I OmM Tris-HCL(pH7.4), 3 mM MgCL2, 0.1 mM PMSF, 20 mM NaF, 1 mM Na3VO4, 1 MM Na4P207, 1 μg/ml of leupeptin/aprotinin/pepstatin. The resulting cell lysate was filtered with 4 layers of cheesecloth. Nuclei were pelleted by centrifugation at 1000 g for 10 min. Mitochondria were precipitated by centrifugation at 15,000 g for 20 min from the supernatant. […] Protein concentration from cytosol were measured by using an absorbance at 595 run (BCA kit from Pierce). […] Density of each band was determined by scanning the exposed film. The time course of glucose and lactate isotopomers in plasma, and glucose isotopomers in liver glycogen was determined using gas chromatography/mass spectrometry. […] The absorption of administered glucose was monitored by the time course of M2 isotopomer, and hepatic glucose recycling by the time course of M1 isotopomer of glucose.

Question: With `OC[C@H]1OC(O)[C@H](O)[C@@H](O)[C@@H]1O` (stereo partly shown) [[1,2-^13C2]-glucose] as the molecule, how does the “plasma glucose level, peak” value read?
Answer: The value was 372 mg/dL.
